Results are given in words; binding and its absence hold for the method and conditions named. Binding calls can cover weak binding; strength is not graded here.
Target: Gal4DBD-ARNT (1–503)-2Myc (UniProt P27540)
Assay: two-hybrid

By UniProt entry, the sequences of proteins in these tests, tags left out. Where a name states a change or a piece, a line headed by the entry shows the natural chain unless it says otherwise. Residues count along the entry.
UniProt P27540, 1-503, stated change not applied: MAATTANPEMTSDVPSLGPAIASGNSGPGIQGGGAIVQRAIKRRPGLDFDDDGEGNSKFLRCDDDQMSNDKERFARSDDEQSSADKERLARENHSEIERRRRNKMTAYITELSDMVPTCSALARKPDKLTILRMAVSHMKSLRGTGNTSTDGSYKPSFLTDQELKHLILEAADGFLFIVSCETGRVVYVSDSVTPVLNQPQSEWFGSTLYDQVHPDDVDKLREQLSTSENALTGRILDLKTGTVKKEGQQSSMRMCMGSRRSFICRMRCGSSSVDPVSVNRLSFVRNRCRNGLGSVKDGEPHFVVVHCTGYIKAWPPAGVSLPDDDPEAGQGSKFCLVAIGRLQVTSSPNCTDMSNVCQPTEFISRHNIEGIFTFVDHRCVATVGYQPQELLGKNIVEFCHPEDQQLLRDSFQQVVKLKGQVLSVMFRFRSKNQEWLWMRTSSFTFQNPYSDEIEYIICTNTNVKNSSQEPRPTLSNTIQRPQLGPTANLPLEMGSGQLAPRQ

For “SIM1.R171H (1–438) fused to the VP64-p65-RTA (VPR) activation domain (from UniProt P81133) (domain or fragment)”, which binding is on record?
Its binding is “binds”.

— publication PMC12774657
